Source: PubChem BioAssay AID493014 (National Center for Advancing Translational Sciences (NCATS), 2011)
The other results are listed elsewhere or left out. Shown are side measurements of this screen, not its main read-out; they come without a call. The list favours compounds with an active or inconclusive main result. Potencies come from curve fits of mixed quality, noted in brackets.

Assay: qHTS Assay to Find Inhibitors of Chronic Active B-Cell Receptor Signaling
Conditions: ABC-DLBCL IkBa-CBG/CBR reporter, luminescence ratio (green luciferase fused to IkBa over red control in TMD8 lymphoma cells), 4 h
How it was run: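 Cell line TMD8 (human ABC DLBCL), stably expressing tet-inducible CBG68-IkBa fusion and CBR; IMDM/0.5% FBS; cpd up to 46 uM; dox induction, 4 h, 37C/5% CO2; dual luminescence; green/red ratio; MG132 control.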

[1] = measured here: CBR red luminescence, cell number
[2] = measured here: IkBa-CBG green luminescence

CCN(CC)S(=O)(=O)c1ccc(C)c(NC(=S)N2CCN(C/C=C/c3ccccc3)CC2)c1
AC50 [1]: 28.2 µM [falling, single point]

CCc1ccc(NC(=O)c2noc(C(C)C)c2[N+](=O)[O-])cc1
AC50 [1]: 1.41 µM [rising, full curve, poor fit]

Cc1cccc2c1c1ccc3c(c1n2C)C(=O)C=CC3=O
AC50 [1]: 31.6 µM [rising, single point]

CN1CCN(c2ccc(CNS(=O)(=O)c3cccc(F)c3)cc2)CC1
AC50 [1]: 15.8 µM [rising, single point]

O=C(/C=C/c1cccc(OCc2ccccc2)c1)c1cccnc1
AC50 [1]: 20.6 µM [falling, single point]
AC50 [2]: 29.1 µM [rising, single point]

CCN1C(=NCCCOC(C)C)N[C@@H](CCc2ccccc2)[C@H](C(=O)NCCCOC(C)C)[C@H]1C
AC50 [1]: 35.5 µM [falling, single point]

COc1ccc(-n2c(SCC(=O)NNC(=O)c3ccccc3C)nnc2-c2ccncc2)cc1
AC50 [1]: 5.62 µM [falling, partial curve, poor fit]

c1ccc(Nc2nc(-c3cccnc3)cs2)nc1
AC50 [1]: 7.94 µM [falling, partial curve, poor fit]

CC(C)[C@H](NS(=O)(=O)/C=C/c1ccccc1)C(=O)OCC(=O)NC(N)=O
AC50 [1]: 11.2 µM [rising, single point]

COc1ccccc1NC(=O)Cn1c(O)c(N=NC(=O)c2ccccc2O)c2ccccc21
AC50 [1]: 1.58 µM [falling, partial curve, poor fit]

O=C(O)c1ccccc1-c1ccc(/C=C/c2cc(C(F)(F)F)[nH]c(=O)n2)o1
AC50 [1]: 35.5 µM [falling, single point]

CCOc1ccccc1NC(=O)CSc1nnc2[nH]c(=O)cc(C)n12
AC50 [1]: 22.4 µM [falling, single point]

Cc1ccc(N=Cc2c(C)[nH]n(-c3nc4ccccc4[nH]3)c2=O)cc1
AC50 [1]: 2.31 µM [falling, full curve, poor fit]

CSc1nc2sc3c(c2c(=S)[nH]1)CC(C)(C)OC3
AC50 [1]: 0.562 µM [rising, full curve, poor fit]

O=C(COc1ccc(Br)cc1)Nc1nc(-c2cccnc2)cs1
AC50 [1]: 0.708 µM [rising, partial curve, poor fit]

Cc1ccc(OCc2nc(-c3ccccc3)no2)c(C)c1
AC50 [1]: 0.1 µM [rising, full curve, poor fit]

O=C(NCc1cccs1)C1CC(c2ccc(Cl)cc2)=NO1 (stereo not given)
AC50 [1]: 3.98 µM [falling, full curve]

COc1ccccc1NC(=O)CSc1nc2[nH]ncc2c(=O)[nH]1
AC50 [1]: 29.1 µM [falling, single point]

Cc1cc(C)c(O)c(-c2cc(C(=O)NCCc3ccc(S(N)(=O)=O)cc3)[nH]n2)c1
AC50 [1]: 35.5 µM [falling, single point]

CC(=O)Oc1ccc(N2C(=O)C3C(C2=O)C2(C)C=CC3(C)O2)cc1 (stereo not given)
AC50 [1]: 22.4 µM [falling, single point]

COc1cccc(CNC(=O)CN2CCC(c3nc4ccc(C)cc4[nH]3)CC2)c1
AC50 [1]: 11.2 µM [rising, partial curve, poor fit]

Cc1cc(-c2n[nH]c(=S)n2/N=C/c2c[nH]c3ccccc23)n[nH]1
AC50 [1]: 0.316 µM [rising, full curve, poor fit]

CCOc1ccc(/C=C2\CCC(C3CCCC3)C2=O)cc1OC (stereo not given)
AC50 [1]: 2.82 µM [rising, full curve, poor fit]

O=C(COC(=O)C1CCCO1)Nc1nc(-c2ccc(F)cc2)cs1 (stereo not given)
AC50 [1]: 4.11 µM [falling, single point]
AC50 [2]: 6.51 µM [rising, partial curve, poor fit]

C=C(C)c1ccc(C(C)(C)NC(=O)NCc2ccco2)cc1
AC50 [1]: 0.116 µM [falling, full curve]

O=C(NC(=S)Nc1ccc2nc[nH]c2c1)c1ccccc1
AC50 [1]: 7.94 µM [falling, partial curve, poor fit]

COc1ccc2[nH]c3c(c2c1)CCNC3C1CC=C(C)CC1 (stereo not given)
AC50 [1]: 31.6 µM [rising, single point]
AC50 [2]: 35.5 µM [falling, single point]

CN(C)CCCN(C(=O)COc1ccc(Cl)cc1)c1nc2cc3c(cc2s1)OCCO3
AC50 [1]: 0.231 µM [falling, full curve]

O=C(c1ccc2c(=O)n3c(nc2c1)CCCCC3)N1CCN(Cc2ccccc2)CC1
AC50 [1]: 16.4 µM [rising, single point]

CCCCc1cc2c(s1)CCCC/C2=N/O
AC50 [1]: 11.6 µM [rising, partial curve]

COC(=O)c1ccccc1NC(=O)CN(c1ccc(C)cc1)S(C)(=O)=O
AC50 [1]: 3.16 µM [rising, single point]

CCC(=O)N/N=C(\C)CC(=O)Nc1ccccc1-c1ccccc1
AC50 [1]: 20.6 µM [falling, single point]

Cc1ccc2oc(-c3cccc(N)c3)nc2c1
AC50 [1]: 11.2 µM [falling, single point]

COc1ccc(-c2cc(C(=O)Nc3cc(S(=O)(=O)N4CCOCC4)ccc3N3CCOCC3)c3ccccc3n2)cc1
AC50 [1]: 1.58 µM [rising, partial curve]

O=C(CSc1nc(-c2ccccc2)nn1C(=O)c1ccccc1)Nc1cccc([N+](=O)[O-])c1
AC50 [1]: 12.6 µM [falling, partial curve]

CCOC(=O)C1=C(C)NC2=C(C1c1ccc([N+](=O)[O-])cc1)S(=O)(=O)c1ccccc12 (stereo not given)
AC50 [1]: 11.6 µM [rising, partial curve, poor fit]

COc1cc(NC(=O)c2ccc(NS(=O)(=O)c3c(C)noc3C)cc2)cc(OC)c1
AC50 [1]: 25.1 µM [falling, partial curve, poor fit]

COc1cc(C(=O)Nc2cccc(-c3nncn3C)c2)cc(OC)c1OC
AC50 [2]: 29.1 µM [falling, partial curve, poor fit]

CCOC(=O)c1cnc2c(CC)cccc2c1NCCN1CCOCC1
AC50 [1]: 3.98 µM [rising, single point]

CCOC(=O)c1sc(N)c(C(=O)Nc2ccccc2)c1C
AC50 [1]: 35.5 µM [falling, partial curve, poor fit]

CCOc1ccc(CCNC(=O)c2ccc(OCc3c(C)noc3C)cc2)cc1OCC
AC50 [1]: 0.206 µM [rising, full curve, poor fit]

CCOC(=O)C(=O)Nc1ccc(S(=O)(=O)Nc2nccs2)cc1
AC50 [1]: 10 µM [falling, partial curve]

CC1CCc2c(C(=O)Nc3ccccn3)csc2C1 (stereo not given)
AC50 [1]: 1.58 µM [rising, partial curve, poor fit]

CCOC(=O)N/N=C/c1c(C)nn(-c2cccc(C(F)(F)F)c2)c1Cl
AC50 [1]: 6.51 µM [rising, full curve, poor fit]
AC50 [2]: 32.6 µM [falling, partial curve, poor fit]

COCCN(C(=O)Cn1c(C(F)(F)F)nc2ccccc21)c1c(N)n(Cc2ccccc2)c(=O)[nH]c1=O
AC50 [1]: 4.47 µM [falling, full curve]

CCN(CC)CC(=O)Nc1ccc(-c2nc3cc(NC(=O)CN(CC)CC)ccc3o2)cc1
AC50 [1]: 23.1 µM [rising, single point]

N#CCC(=O)NN=C1CCCCCCCCCCC1
AC50 [1]: 0.112 µM [falling, full curve, poor fit]

Cc1noc(C)c1CSCC(=O)Nc1nc2ccc(Oc3ccccc3)cc2s1
AC50 [1]: 0.146 µM [falling, partial curve, poor fit]

CCN(CC)CCN1C(=O)c2cccc3cc(N)cc(c23)C1=O
AC50 [1]: 3.98 µM [falling, full curve]

CC(=O)Nc1cccc(/C(C)=N/NC(=O)c2ccccc2Cl)c1
AC50 [1]: 7.94 µM [falling, partial curve, poor fit]

CC(C)OC(=O)Cn1nnc(-c2ccccc2)n1
AC50 [1]: 7.31 µM [rising, partial curve, poor fit]

COc1ccc(OC)c(C2=NS(=O)(=O)N(C)C(C(=O)NCc3cccs3)=C2)c1
AC50 [1]: 15.8 µM [falling, single point]

C/C(CC(=O)Nc1ccc(Cl)cc1Cl)=N\NC(=O)c1ccncc1
AC50 [1]: 10 µM [falling, partial curve]

O=C1Nc2ccccc2S/C1=C/NCc1ccccc1Cl
AC50 [1]: 3.16 µM [falling, partial curve, poor fit]

Cc1ccccc1Oc1nc2c(C)cccn2c(=O)c1/C=C(\C#N)C(=O)NC1CCS(=O)(=O)C1 (stereo not given)
AC50 [1]: 5.62 µM [falling, partial curve]

CC(OC(=O)/C=C/c1ccc2ccccc2n1)C(=O)NCc1ccccc1 (stereo not given)
AC50 [1]: 20.6 µM [falling, partial curve, poor fit]

Cc1cc(Cl)ccc1N=c1ssnc1Cl
AC50 [1]: 29.1 µM [falling, single point]

CC(C)(C)NC(=O)CN(C(=O)CNS(=O)(=O)c1ccccc1)c1ccc2c(c1)OCCO2
AC50 [1]: 0.00461 µM [rising, full curve, poor fit]

COc1ccc([N+](=O)[O-])cc1NC(=S)NC(NC(=O)C(c1ccccc1)c1ccccc1)C(Cl)(Cl)Cl (stereo not given)
AC50 [1]: 17.8 µM [falling, single point]

CC(=O)COC(=O)CNC(=O)c1ccc(Br)cc1
AC50 [1]: 4.11 µM [falling, partial curve, poor fit]

CC(C)Cc1nc(SCc2cccnc2)c2c(=O)n(C)c(=O)n(C)c2n1
AC50 [1]: 7.08 µM [falling, partial curve, poor fit]
